A short description of this assay: qHTS Assay for Modulators of Lamin A Splicing. The conditions noted are these: HeLa LMNA splicing GFP/RFP minigene ratio, 48 h. In short, it runs like this: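 S3 HeLa stable clones carrying a lamin A-EGFP splicing minigene plus DsRed2 were seeded at 600 cells/well in Opti-MEM with 2% FBS, pin-dosed and incubated 48 h at 37°C. Acumen cytometry (488 nm) gave the GFP/RFP total-intensity ratio.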

Where [1] appears, read: measured here: GFP splicing reporter channel.
Where [2] appears, read: measured here: RFP viability control channel.

From PubChem BioAssay AID1487 (National Center for Advancing Translational Sciences (NCATS), 2009) come the findings set out here.

Some of the results follow. The main result of the screen is listed elsewhere. These columns were measured beside it and carry no call. Most of these compounds were active or inconclusive in the main read-out, so they are no random draw. The note in brackets gives the kind of curve behind each potency; many fits are weak.

Regarding `CCn1c(SCC(=O)c2[nH]c(C)c(C(C)=O)c2C)nnc1-c1cccs1`, the AC50 by setting is: under setting [1], 2.51 µM [rising, partial curve]; under setting [2], 5.62 µM [rising, partial curve].

With `COc1cccc(OCC(O)CN2CCN(c3ncccn3)CC2)c1` (centres undefined), under setting [1], the AC50 was 10 µM [rising, single point].

Consider `Cc1cc(Cl)ccc1OCC(=O)NC1CCCC1`, for which, under setting [2], the AC50 was 12.6 µM [rising, partial curve].

On to `COCCCNc1c2c3c(cccc3[nH]c1=O)C(=O)c1ccccc1-2`, for which the AC50 by setting is: under setting [1], 8.91 µM [falling, partial curve]; under setting [2], 8.91 µM [falling, partial curve].

As for `COc1cc2[nH]cc(C(=O)NCCc3ccccc3)c(=O)c2cc1OC`, the AC50 under setting [2] was 15.8 µM [rising, single point].

On to `O=c1cc(CSc2nnc3ccccn23)c2c(ccc3ccccc32)o1`, for which the AC50 under setting [1] was 35.5 µM [rising, single point].

For `Cc1cc2c(cc1S(=O)(=O)CCC(=O)N1CCC(C)CC1)OCC(=O)N2`, the AC50 is 12.6 µM [falling, single point] under setting [1] and 35.5 µM [falling, single point] under setting [2].

Regarding `S=c1nc(C23CC4CC(CC(C4)C2)C3)nc2sccn12`, the concentration at half-maximal activity (AC50) runs as follows: under setting [1], 15.8 µM [rising, partial curve, poor fit]; under setting [2], 15.8 µM [rising, partial curve, poor fit].

For `COc1ccc(NC(=O)CN2C(=O)CCn3nc(-c4cccn4C)cc32)cc1`, the concentration at half-maximal activity (AC50) is, setting by setting: under setting [1], 0.00891 µM [falling, full curve, poor fit]; under setting [2], 0.00501 µM [falling, full curve, poor fit].

On to `Cn1c(=O)cc(SCC(=O)NCCCN2CCN(c3ccc(F)cc3)CC2)c2ccccc21`, for which the AC50 under setting [2] is 7.94 µM [rising, partial curve, poor fit].

As for `COc1ccccc1-n1nnnc1S(=O)(=O)Cc1ccc(Cl)cc1`, the AC50 runs as follows: under setting [1], 8.91 µM [falling, single point]; under setting [2], 7.08 µM [falling, single point].

In the case of `CC1CCN(C(=S)c2cn(Cc3ccccc3F)c3ccccc23)CC1`, the AC50 under setting [1] was 22.4 µM [rising, single point] and the AC50 under setting [2] was 35.5 µM [rising, single point].

As to `O=C(CN1CCC(Cc2ccccc2)CC1)NC(=O)NC1CCCCC1`, under setting [1], the AC50 is 4.47 µM [falling, partial curve, poor fit].

As for `Cc1cc(C)n(-c2nc(Nc3ccccc3C(F)(F)F)nc(-n3nc(C)cc3C)n2)n1`, under setting [2], the AC50 was 35.5 µM [rising, partial curve].

For `C=CCn1c(O)c(N=NC(=S)Nc2ccc(OC)c(Cl)c2)c2ccccc21`, the AC50 was 8.91 µM [rising, partial curve, poor fit] under setting [1] and 7.94 µM [rising, partial curve] under setting [2].

Turning to `CCCN1CCN(c2ncnc3sc(C(=O)Nc4ccc(C(C)C)cc4)c(C)c23)CC1`, the AC50 under setting [2] is 10 µM [rising, partial curve, poor fit].

Consider `O=C(CS(=O)(=O)c1cccc2nsnc12)N1CCN(c2cccc(Cl)c2)CC1`, for which the AC50 under setting [2] is 0.316 µM [rising, full curve, poor fit].

With `CC12CCC(=O)N1C(C(=O)OCC(=O)Nc1cc(S(=O)(=O)N3CCCCC3)ccc1Cl)CS2` (centres undefined), the AC50 by setting is: under setting [1], 0.1 µM [falling, full curve]; under setting [2], 0.1 µM [falling, full curve, poor fit].

`COc1cc(/C=C(/C#N)C(=O)NCCc2c[nH]c3ccccc23)ccc1OCc1ccccc1F`: the AC50 was 5.01 µM [falling, partial curve] under setting [1] and 5.62 µM [falling, single point] under setting [2].

As for `COc1cc(SC)ccc1C(=O)Nc1ccc(S(=O)(=O)Nc2nccc(C)n2)cc1`, the concentration at half-maximal activity (AC50) by setting is: under setting [1], 2.24 µM [falling, full curve, poor fit]; under setting [2], 3.98 µM [falling, partial curve].

In the case of `CC(C)OC(=O)C(C)(C)Oc1ccc(C(=O)c2ccc(Cl)cc2)cc1`, the AC50 under setting [1] was 6.31 µM [rising, partial curve, poor fit] and the AC50 under setting [2] is 12.6 µM [rising, single point].

Consider `Cc1cccc(CNc2nc(-c3ccc4c(c3)OCO4)nc3ccccc23)c1`, for which the half-maximal activity concentration (AC50) by setting is: under setting [1], 4.47 µM [falling, partial curve]; under setting [2], 8.91 µM [falling, partial curve].

In the case of `CN(C)S(=O)(=O)c1ccc(C(=O)OCC(=O)c2ccc(OC(F)F)cc2OC(F)F)cc1`, the AC50 under setting [2] was 39.8 µM [falling, partial curve, poor fit].

As for `N#C/C(=C/c1ccccc1[N+](=O)[O-])c1nc(C2CC2)cs1`, the AC50 under setting [2] was 7.94 µM [rising, partial curve, poor fit].

With `CN=Cc1sc2ccccc2c1O`, under setting [2], the AC50 was 35.5 µM [falling, single point].

`CN(CCC#N)C(=O)CSc1ncnc2sc(-c3ccccc3)cc12`: the AC50 reads like this: under setting [1], 3.98 µM [rising, partial curve]; under setting [2], 12.6 µM [rising, partial curve].

Consider `COC(=O)c1c(-c2ccccc2)csc1NC(=O)c1c(-c2ccccc2)noc1C`, for which the AC50 under setting [2] was 2.51 µM [rising, full curve].

Regarding `O=C(Nc1ccc(S(=O)(=O)Nc2ncccn2)cc1)c1ccc(S(=O)(=O)N2CCCC2)cc1`, the AC50 under setting [2] is 0.0631 µM [rising, full curve, poor fit].

`COc1cccc(C(=O)Nc2ccc(S(=O)(=O)NCc3ccco3)cc2)c1`: the AC50 is 28.2 µM [rising, single point] under setting [1] and 35.5 µM [rising, single point] under setting [2].

Regarding `COc1ccc(Nc2ccc3c(c2)=NC2(CCCCC2)[N+]=3[O-])cc1`, the AC50 is 11.2 µM [falling, partial curve] under setting [1] and 15.8 µM [falling, partial curve] under setting [2].

As for `CO[C@]1(NC(=O)C2SC(=C(C(N)=O)C(=O)O)S2)C(=O)N2C(C(=O)O)=C(CSc3nnnn3C)CS[C@H]21` (some centres undefined), the AC50 under setting [2] was 7.94 µM [rising, partial curve, poor fit].

Consider `CC1=NN(c2ccccc2)C(=O)/C1=C\C=C1/N(C)c2ccccc2C1(C)C`, for which the AC50 under setting [2] is 2.24 µM [rising, partial curve, poor fit].

As to `CCc1ccc(CN(C)C(=O)CCc2nnc(Cc3cccc(C)c3)o2)nc1`, the AC50 is, setting by setting: under setting [1], 35.5 µM [falling, partial curve, poor fit]; under setting [2], 35.5 µM [falling, partial curve, poor fit].

Turning to `S=C(NCc1ccc(Cl)cc1)NC12CC3CC(CC(C3)C1)C2`, the AC50 is, setting by setting: under setting [1], 17.8 µM [rising, single point]; under setting [2], 31.6 µM [rising, single point].

Take `COc1cccc(CN(C)C(=O)c2ccc(S(=O)(=O)N3CCCC3)cc2)c1OC`: the AC50 under setting [1] was 0.2 µM [rising, full curve, poor fit].

`Cc1c(O)c(=O)n(-c2ccccc2)n1C`: the concentration at half-maximal activity (AC50) under setting [1] is 0.00224 µM [falling, full curve, poor fit].

Consider `COc1cccc(C(C)NC(=O)Nc2cccc(C(F)(F)F)c2)c1` (centres undefined), for which the AC50 under setting [1] was 12.6 µM [falling, single point] and the AC50 under setting [2] is 15.8 µM [falling, partial curve, poor fit].

Take `S=C(Nc1ccc(Cl)c(Cl)c1)N1CCOCC1`: the AC50 was 8.91 µM [rising, partial curve, poor fit] under setting [1] and 12.6 µM [rising, partial curve] under setting [2].

For the compound `Cc1ccc(S(=O)(=O)Nc2cc(Cl)c(O)cc2C)cc1`, the AC50 under setting [2] is 20 µM [rising, single point].

As for `Cc1ccc(Cn2c(N3CCCCCC3)nc3c2c(=O)[nH]c(=O)n3C)cc1`, the AC50 under setting [1] is 35.5 µM [rising, single point].

With `CCN(CC)C(=S)NC(=O)c1cccnc1`, under setting [1], the AC50 is 10 µM [rising, partial curve, poor fit].

With `Cc1cc(Cl)ccc1NC(=S)NCc1ccco1`, under setting [2], the AC50 is 35.5 µM [rising, single point].

As for `Clc1ccc(OCc2nc(-c3ccccn3)no2)c(Br)c1`, the AC50 is, setting by setting: under setting [1], 35.5 µM [rising, single point]; under setting [2], 35.5 µM [rising, single point].

With `COc1ccccc1/C=C/C(=O)Nc1ccc(N2CCOCC2)cc1`, the AC50 under setting [1] is 35.5 µM [falling, single point] and the AC50 under setting [2] is 35.5 µM [falling, single point].

On to `O=C1CCCC2(O)C1C(c1cccc(Br)c1)NC(=O)N2Cc1ccccc1` (centres undefined), for which the AC50 reads like this: under setting [1], 0.0224 µM [rising, full curve, poor fit]; under setting [2], 0.0562 µM [rising, full curve, poor fit].

Regarding `CCOc1ccc(C(=O)Cn2c(=O)n3nc(CCn4nc(C)cc4C)nc3c3cc(OC)c(OC)cc32)cc1`, the AC50 reads like this: under setting [1], 0.251 µM [falling, single point]; under setting [2], 0.355 µM [falling, single point].

For `CC1CCc2c(sc(Nc3nc4c(F)cccc4s3)c2C(N)=O)C1` (centres undefined), under setting [1], the AC50 was 10 µM [falling, partial curve, poor fit].

Take `COc1ccc(S(=O)(=O)N2CCCCC2C(=O)O)cc1OC` (centres undefined): the AC50 under setting [2] is 20 µM [falling, partial curve].

On to `CCCCOc1ccc(-c2cn3ccccc3n2)cc1[N+](=O)[O-]`, for which the AC50 runs as follows: under setting [1], 31.6 µM [rising, single point]; under setting [2], 31.6 µM [rising, single point].

`Cc1ccc(-c2ccc(/C=N\NC(=O)C3C(=O)NCC3c3ccccc3)o2)cc1Cl` (centres undefined): the AC50 reads like this: under setting [1], 35.5 µM [falling, single point]; under setting [2], 35.5 µM [falling, single point].

For the compound `c1ccc(COc2ccc(OCCCn3cncn3)cc2)cc1`, the concentration at half-maximal activity (AC50) under setting [2] is 11.2 µM [rising, single point].

In the case of `Cc1nn(Cc2ccc(C(=O)N3CCOCC3)o2)c(C)c1Br`, the AC50 was 22.4 µM [rising, single point] under setting [1] and 17.8 µM [rising, single point] under setting [2].
